The supplement of paper PMC12823440, “Inhibitors supercharge kinase turnover through native proteolytic circuits” (Nature, 2025)
Structures can show the parent of a compound that is named as a salt. This is one part of the list. Hit calls seldom repeat between salt and free forms of one compound.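 Kinases, fused to nanoluciferase, were expressed in K562 cells; luminescence was measured every 4 h from 2 to 18 h as percent of control (DMSO = 100%, positive control = 0%). A time point is decreased if signal falls significantly (2 sigma). Hits were called by the authors by a rule that is not shown; the count of time points alone does not decide it.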

Amino acid sequences for entries named in this document (tags omitted). A change or cut given only in a name is not applied to a line headed by its entry.
UniProt P53350, whole entry: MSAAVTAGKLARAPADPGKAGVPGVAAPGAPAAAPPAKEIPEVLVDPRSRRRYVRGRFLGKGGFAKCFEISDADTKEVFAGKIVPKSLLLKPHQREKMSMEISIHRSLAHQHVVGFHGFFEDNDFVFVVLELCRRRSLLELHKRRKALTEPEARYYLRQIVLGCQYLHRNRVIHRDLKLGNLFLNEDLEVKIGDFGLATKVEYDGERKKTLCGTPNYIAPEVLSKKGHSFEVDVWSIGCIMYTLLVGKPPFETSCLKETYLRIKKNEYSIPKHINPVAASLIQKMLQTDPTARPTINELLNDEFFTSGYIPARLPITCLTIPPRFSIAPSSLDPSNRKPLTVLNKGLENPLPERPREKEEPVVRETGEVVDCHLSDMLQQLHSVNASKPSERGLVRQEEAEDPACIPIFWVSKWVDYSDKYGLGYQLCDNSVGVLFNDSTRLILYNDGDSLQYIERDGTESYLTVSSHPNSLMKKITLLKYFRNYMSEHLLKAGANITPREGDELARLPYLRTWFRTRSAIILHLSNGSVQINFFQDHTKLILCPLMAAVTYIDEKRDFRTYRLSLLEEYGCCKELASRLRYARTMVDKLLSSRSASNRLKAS
UniProt Q14289, whole entry, looked up: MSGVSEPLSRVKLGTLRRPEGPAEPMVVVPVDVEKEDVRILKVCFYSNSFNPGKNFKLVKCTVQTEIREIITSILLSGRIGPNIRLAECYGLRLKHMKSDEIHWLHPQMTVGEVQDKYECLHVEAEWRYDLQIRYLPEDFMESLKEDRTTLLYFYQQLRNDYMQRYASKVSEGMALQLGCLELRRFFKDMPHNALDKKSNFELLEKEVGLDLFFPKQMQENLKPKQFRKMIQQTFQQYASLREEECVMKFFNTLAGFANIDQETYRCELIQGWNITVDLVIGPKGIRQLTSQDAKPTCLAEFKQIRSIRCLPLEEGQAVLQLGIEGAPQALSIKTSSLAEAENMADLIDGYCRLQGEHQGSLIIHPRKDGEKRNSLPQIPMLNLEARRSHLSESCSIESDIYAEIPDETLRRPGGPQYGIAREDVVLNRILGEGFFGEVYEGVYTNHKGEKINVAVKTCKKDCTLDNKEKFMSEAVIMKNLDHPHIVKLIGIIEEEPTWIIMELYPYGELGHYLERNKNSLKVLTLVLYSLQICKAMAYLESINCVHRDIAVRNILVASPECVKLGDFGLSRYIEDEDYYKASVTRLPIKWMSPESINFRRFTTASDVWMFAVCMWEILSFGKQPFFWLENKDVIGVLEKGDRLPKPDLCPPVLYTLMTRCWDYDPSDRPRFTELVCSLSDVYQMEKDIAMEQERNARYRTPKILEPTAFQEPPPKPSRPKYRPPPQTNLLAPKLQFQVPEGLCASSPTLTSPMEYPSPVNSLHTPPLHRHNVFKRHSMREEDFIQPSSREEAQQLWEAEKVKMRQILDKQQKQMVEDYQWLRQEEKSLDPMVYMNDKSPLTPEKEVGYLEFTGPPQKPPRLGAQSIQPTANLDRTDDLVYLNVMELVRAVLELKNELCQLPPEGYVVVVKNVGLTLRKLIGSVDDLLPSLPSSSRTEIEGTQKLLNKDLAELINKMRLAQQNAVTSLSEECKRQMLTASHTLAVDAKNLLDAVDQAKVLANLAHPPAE
UniProt P07949, whole entry, looked up: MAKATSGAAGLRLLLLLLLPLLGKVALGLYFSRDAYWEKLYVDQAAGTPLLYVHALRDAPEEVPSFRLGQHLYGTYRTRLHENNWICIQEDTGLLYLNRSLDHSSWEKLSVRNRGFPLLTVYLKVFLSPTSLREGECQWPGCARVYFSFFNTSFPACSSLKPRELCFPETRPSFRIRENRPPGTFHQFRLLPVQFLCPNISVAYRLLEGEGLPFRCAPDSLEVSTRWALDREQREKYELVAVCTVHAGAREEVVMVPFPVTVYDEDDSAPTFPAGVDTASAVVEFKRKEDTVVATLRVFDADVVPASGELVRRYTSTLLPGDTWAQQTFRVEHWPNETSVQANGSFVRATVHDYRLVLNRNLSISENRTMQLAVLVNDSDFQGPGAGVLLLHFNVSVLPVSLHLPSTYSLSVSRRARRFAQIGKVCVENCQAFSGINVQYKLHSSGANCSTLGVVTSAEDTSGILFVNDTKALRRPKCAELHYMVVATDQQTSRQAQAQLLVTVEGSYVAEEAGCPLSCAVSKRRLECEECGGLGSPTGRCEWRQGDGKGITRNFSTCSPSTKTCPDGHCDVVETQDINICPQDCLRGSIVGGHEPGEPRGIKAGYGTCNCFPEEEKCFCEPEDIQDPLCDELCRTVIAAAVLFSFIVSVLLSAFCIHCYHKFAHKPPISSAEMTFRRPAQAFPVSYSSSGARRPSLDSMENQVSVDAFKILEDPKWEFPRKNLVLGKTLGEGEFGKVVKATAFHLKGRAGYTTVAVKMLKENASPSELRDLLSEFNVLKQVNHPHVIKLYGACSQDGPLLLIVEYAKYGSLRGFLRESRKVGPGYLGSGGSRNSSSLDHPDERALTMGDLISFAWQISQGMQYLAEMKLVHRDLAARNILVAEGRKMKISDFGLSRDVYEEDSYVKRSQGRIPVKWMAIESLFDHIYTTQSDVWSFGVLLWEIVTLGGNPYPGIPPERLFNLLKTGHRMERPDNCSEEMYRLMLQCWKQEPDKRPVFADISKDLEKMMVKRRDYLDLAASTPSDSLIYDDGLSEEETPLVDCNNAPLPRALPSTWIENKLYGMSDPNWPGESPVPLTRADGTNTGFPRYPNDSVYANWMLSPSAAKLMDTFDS
UniProt P07949, whole entry M918T, looked up: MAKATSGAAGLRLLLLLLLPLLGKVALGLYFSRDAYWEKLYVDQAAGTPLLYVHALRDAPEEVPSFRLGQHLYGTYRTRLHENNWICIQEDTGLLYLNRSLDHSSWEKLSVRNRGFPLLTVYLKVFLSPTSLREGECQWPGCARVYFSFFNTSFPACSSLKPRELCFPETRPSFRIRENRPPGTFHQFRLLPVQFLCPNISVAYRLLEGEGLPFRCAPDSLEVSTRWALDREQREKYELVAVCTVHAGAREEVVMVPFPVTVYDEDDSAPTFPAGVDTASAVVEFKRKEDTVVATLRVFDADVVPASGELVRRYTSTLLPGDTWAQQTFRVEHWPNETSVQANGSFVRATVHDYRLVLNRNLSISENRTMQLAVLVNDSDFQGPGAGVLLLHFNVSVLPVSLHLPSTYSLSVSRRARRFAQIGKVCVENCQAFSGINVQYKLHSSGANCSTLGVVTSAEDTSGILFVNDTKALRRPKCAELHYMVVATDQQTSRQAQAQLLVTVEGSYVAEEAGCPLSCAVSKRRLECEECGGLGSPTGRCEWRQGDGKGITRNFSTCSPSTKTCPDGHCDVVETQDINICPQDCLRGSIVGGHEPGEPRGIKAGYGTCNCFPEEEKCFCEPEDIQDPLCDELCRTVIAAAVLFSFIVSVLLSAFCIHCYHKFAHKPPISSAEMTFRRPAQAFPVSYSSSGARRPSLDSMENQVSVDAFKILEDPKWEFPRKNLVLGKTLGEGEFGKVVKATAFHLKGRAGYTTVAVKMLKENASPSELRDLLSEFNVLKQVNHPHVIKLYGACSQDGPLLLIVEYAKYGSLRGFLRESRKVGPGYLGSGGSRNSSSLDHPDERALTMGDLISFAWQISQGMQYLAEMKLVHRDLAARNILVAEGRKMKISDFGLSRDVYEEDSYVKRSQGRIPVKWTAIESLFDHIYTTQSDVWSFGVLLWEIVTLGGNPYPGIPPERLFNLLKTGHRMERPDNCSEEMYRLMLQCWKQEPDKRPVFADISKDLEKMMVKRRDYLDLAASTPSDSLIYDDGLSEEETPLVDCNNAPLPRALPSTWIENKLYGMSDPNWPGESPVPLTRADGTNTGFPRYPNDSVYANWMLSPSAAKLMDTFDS
UniProt Q9BRS2: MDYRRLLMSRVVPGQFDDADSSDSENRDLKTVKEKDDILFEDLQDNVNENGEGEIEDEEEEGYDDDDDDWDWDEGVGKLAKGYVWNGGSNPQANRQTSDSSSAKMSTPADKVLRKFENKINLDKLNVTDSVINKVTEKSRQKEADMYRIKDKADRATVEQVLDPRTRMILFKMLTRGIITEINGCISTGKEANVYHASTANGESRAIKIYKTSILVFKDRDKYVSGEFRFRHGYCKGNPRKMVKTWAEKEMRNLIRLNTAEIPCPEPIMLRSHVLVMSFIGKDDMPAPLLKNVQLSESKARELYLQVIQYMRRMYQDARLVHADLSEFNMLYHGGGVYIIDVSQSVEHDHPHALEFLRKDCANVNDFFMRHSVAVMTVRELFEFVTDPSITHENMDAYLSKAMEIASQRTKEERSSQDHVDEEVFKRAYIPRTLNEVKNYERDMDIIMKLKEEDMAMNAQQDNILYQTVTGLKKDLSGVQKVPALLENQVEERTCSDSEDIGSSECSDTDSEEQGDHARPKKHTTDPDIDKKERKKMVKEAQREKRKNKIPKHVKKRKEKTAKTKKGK
UniProt Q13546: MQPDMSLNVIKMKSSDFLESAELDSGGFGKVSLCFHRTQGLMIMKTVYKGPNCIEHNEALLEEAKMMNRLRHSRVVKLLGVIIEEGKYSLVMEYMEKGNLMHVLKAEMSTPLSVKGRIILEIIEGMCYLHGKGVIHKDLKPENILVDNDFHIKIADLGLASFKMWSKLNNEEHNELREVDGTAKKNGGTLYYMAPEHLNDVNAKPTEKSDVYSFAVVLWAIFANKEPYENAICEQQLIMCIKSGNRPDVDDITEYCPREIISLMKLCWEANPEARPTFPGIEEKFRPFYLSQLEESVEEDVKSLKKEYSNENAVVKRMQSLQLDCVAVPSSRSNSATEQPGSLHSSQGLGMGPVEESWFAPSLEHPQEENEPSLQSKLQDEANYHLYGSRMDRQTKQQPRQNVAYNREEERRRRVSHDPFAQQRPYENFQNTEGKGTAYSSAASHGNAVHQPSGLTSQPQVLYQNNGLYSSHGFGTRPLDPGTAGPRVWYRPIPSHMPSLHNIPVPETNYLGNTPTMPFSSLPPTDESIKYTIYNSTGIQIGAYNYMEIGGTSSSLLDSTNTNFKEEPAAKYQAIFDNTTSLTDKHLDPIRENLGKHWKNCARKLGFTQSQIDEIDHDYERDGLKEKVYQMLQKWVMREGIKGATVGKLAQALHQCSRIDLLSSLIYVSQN
UniProt Q01974, whole entry: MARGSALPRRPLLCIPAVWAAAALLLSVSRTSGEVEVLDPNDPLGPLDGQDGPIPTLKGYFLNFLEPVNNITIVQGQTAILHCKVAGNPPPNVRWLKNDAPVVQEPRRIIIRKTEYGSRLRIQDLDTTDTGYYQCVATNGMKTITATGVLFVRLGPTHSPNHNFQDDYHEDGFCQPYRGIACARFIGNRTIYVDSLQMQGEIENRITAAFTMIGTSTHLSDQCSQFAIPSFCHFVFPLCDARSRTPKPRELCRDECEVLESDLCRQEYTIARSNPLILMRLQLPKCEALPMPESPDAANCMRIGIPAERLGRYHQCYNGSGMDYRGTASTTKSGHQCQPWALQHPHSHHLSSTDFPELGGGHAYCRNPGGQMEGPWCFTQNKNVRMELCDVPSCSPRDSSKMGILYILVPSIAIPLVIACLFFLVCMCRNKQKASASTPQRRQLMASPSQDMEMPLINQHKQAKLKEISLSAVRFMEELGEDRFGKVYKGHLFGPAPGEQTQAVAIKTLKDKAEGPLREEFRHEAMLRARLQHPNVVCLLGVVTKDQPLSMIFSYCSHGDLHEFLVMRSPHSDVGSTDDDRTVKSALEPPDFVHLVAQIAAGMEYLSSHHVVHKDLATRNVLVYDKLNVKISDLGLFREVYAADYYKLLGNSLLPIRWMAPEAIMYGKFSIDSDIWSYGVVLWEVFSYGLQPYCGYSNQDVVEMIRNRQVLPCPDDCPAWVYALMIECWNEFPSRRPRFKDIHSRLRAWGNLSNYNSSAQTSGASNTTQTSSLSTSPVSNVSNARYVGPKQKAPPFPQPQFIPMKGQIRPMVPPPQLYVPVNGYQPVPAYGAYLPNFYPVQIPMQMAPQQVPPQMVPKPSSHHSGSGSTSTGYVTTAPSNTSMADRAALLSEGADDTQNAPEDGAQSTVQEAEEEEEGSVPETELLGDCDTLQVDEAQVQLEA
UniProt Q9Y6E0: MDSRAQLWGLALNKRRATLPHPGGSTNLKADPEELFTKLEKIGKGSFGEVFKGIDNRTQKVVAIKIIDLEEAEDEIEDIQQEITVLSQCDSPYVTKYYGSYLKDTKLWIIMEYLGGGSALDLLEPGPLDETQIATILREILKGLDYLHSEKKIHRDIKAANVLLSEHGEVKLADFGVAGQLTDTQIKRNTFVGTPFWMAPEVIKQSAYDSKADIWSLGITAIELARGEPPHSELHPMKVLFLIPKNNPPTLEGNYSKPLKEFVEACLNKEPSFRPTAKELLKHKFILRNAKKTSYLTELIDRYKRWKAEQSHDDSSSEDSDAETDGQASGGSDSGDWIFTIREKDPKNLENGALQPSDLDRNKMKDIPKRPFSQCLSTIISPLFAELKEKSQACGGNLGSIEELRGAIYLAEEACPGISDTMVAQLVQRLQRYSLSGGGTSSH

How the values were obtained:
Experiment in all cases: kinase-Nluc reporter destabilization hit call (1 = scored as downregulated) (binary); higher = compound decreases kinase abundance
Details in all cases: K562; 2-18 h
PDPK1 = PDPK1 (UniProt O15530)
PIK4CA = PIK4CA (UniProt P42356)
PIK4CB = PIK4CB (UniProt Q9UBF8)
PLK1 = PLK1 (UniProt P53350)
PRKAA1 = PRKAA1 (UniProt Q13131)
PRKCA = PRKCA (UniProt P17252)
PTK2 = PTK2 (UniProt Q05397)
PTK2B = PTK2B (UniProt Q14289)
RAF1 = RAF1 (UniProt P04049)
[1] = biological target: RAF1_S257L (clone: RAF1_mut) (UniProt P04049)
RET = RET (UniProt P07949)
[2] = biological target: RET_M918T (clone: RET_mut) (UniProt P07949)
RIOK1 = RIOK1 (UniProt Q9BRS2)
RIPK1 = RIPK1 (UniProt Q13546)
RIPK2 = RIPK2 (UniProt O43353)
ROR2 = ROR2 (UniProt Q01974)
RPS6KA1 = RPS6KA1 (UniProt Q15418)
SPHK1 = SPHK1 (UniProt Q9NYA1)
SRC = SRC (UniProt P12931)
STK24 = STK24 (UniProt Q9Y6E0)

Measured: kinase-Nluc reporter destabilization hit call

CCc1ccc(C(=O)COc2ccc(CC3SC(=O)NC3=O)cc2)nc1 (stereo not given) (10 µM)
inactive: PDPK1 = 0 | PIK4CA 0 | PIK4CB 0 | PLK1 = 0 | PRKAA1 = 0 | PRKCA 0 | PTK2 = 0 | PTK2B 0 | RAF1 = 0 | [1] 0 | RET 0 | [2] 0 | RIOK1 = 0 | RIPK1 = 0 | RIPK2 = 0 | ROR2 = 0 | RPS6KA1 = 0 | SPHK1 = 0 | SRC 0 | STK24 = 0

COc1cnccc1Nc1nc(-c2nn(Cc3c(F)cc(OCCO)cc3F)c3ccccc23)ncc1OC (10 µM)
inactive: PDPK1 = 0 | PIK4CA 0 | PIK4CB 0 | PLK1 = 0 | PRKAA1 = 0 | PRKCA 0 | PTK2 = 0 | PTK2B 0 | RAF1 = 0 | [1] 0 | RET 0 | [2] 0 | RIOK1 = 0 | RIPK1 = 0 | RIPK2 = 0 | ROR2 = 0 | RPS6KA1 = 0 | SPHK1 = 0 | SRC 0 | STK24 = 0

C=CC(=O)N1CCC(Oc2cc3c(Nc4ccc(Cl)c(Cl)c4F)ncnc3cc2OC)CC1 [Poziotinib] (2.5 µM)
inactive: PDPK1 = 0 | PIK4CA 0 | PIK4CB 0 | PLK1 = 0 | PRKAA1 = 0 | PRKCA 0 | PTK2 = 0 | PTK2B 0 | RAF1 = 0 | [1] 0 | RET 0 | [2] 0 | RIOK1 = 0 | RIPK1 = 0 | RIPK2 = 0 | ROR2 = 0 | RPS6KA1 = 0 | SPHK1 = 0 | SRC 0 | STK24 = 0

O=C(CO)N1CCC(c2n[nH]c(-c3ccc(Cl)cc3)c2-c2ccncn2)CC1 (10 µM)
inactive: PDPK1 = 0 | PIK4CA 0 | PIK4CB 0 | PLK1 = 0 | PRKAA1 = 0 | PRKCA 0 | PTK2 = 0 | PTK2B 0 | RAF1 = 0 | [1] 0 | RET 0 | [2] 0 | RIOK1 = 0 | RIPK1 = 0 | RIPK2 = 0 | ROR2 = 0 | RPS6KA1 = 0 | SPHK1 = 0 | SRC 0 | STK24 = 0

O=C(Nc1ccc(Cl)c(Cl)c1)Nc1ccc2nnsc2c1 (10 µM)
inactive: PDPK1 = 0 | PIK4CA 0 | PIK4CB 0 | PLK1 = 0 | PRKAA1 = 0 | PRKCA 0 | PTK2 = 0 | PTK2B 0 | RAF1 = 0 | [1] 0 | RET 0 | [2] 0 | RIOK1 = 0 | RIPK1 = 0 | RIPK2 = 0 | ROR2 = 0 | RPS6KA1 = 0 | SPHK1 = 0 | SRC 0 | STK24 = 0

Nc1[nH]c(=O)nc2c1ncn2[C@@H]1O[C@H](CO)[C@@H](O)[C@H]1O [Crotonoside] (10 µM)
inactive: PDPK1 = 0 | PIK4CA 0 | PIK4CB 0 | PLK1 = 0 | PRKAA1 = 0 | PRKCA 0 | PTK2 = 0 | PTK2B 0 | RAF1 = 0 | [1] 0 | RET 0 | [2] 0 | RIOK1 = 0 | RIPK1 = 0 | RIPK2 = 0 | ROR2 = 0 | RPS6KA1 = 0 | SPHK1 = 0 | SRC 0 | STK24 = 0

O=c1nc(N2CCOCC2)oc2c(-c3cccc4c3sc3ccccc34)cccc12 (10 µM)
inactive: PDPK1 = 0 | PIK4CA 0 | PIK4CB 0 | PLK1 = 0 | PRKAA1 = 0 | PRKCA 0 | PTK2 = 0 | PTK2B 0 | RAF1 = 0 | [1] 0 | RET 0 | [2] 0 | RIOK1 = 0 | RIPK1 = 0 | RIPK2 = 0 | ROR2 = 0 | RPS6KA1 = 0 | SPHK1 = 0 | SRC 0 | STK24 = 0

CC[C@H](Nc1ncnc2[nH]cnc12)c1oc2ccccc2c(=O)c1-c1cccc(F)c1 [Tenalisib] (10 µM)
inactive: PDPK1 = 0 | PIK4CA 0 | PIK4CB 0 | PLK1 = 0 | PRKAA1 = 0 | PRKCA 0 | PTK2 = 0 | PTK2B 0 | RAF1 = 0 | [1] 0 | RET 0 | [2] 0 | RIOK1 = 0 | RIPK1 = 0 | RIPK2 = 0 | ROR2 = 0 | RPS6KA1 = 0 | SPHK1 = 0 | SRC 0 | STK24 = 0

CC(C)Oc1ccc(-c2cnc3c(-c4ccnc5ccccc45)cnn3c2)cc1 (10 µM)
inactive: PDPK1 = 0 | PIK4CA 0 | PIK4CB 0 | PLK1 = 0 | PRKAA1 = 0 | PRKCA 0 | PTK2 = 0 | PTK2B 0 | RAF1 = 0 | [1] 0 | RET 0 | [2] 0 | RIOK1 = 0 | RIPK1 = 0 | RIPK2 = 0 | ROR2 = 0 | RPS6KA1 = 0 | SPHK1 = 0 | SRC 0 | STK24 = 0

O=C1NC(=O)C(c2cnc3ccccn23)=C1c1cn2c3c(cc(F)cc13)CN(C(=O)N1CCCCC1)CC2 (2.5 µM)
inactive: PDPK1 = 0 | PIK4CA 0 | PIK4CB 0 | PLK1 = 0 | PRKAA1 = 0 | PRKCA 0 | PTK2 = 0 | PTK2B 0 | RAF1 = 0 | [1] 0 | RET 0 | [2] 0 | RIOK1 = 0 | RIPK1 = 0 | RIPK2 = 0 | ROR2 = 0 | RPS6KA1 = 0 | SPHK1 = 0 | SRC 0 | STK24 = 0

CNC(=O)c1ccc(-c2cnc3cnc(-c4ccccc4)cn23)cc1 (10 µM)
inactive: PDPK1 = 0 | PIK4CA 0 | PIK4CB 0 | PLK1 = 0 | PRKAA1 = 0 | PRKCA 0 | PTK2 = 0 | PTK2B 0 | RAF1 = 0 | [1] 0 | RET 0 | [2] 0 | RIOK1 = 0 | RIPK1 = 0 | RIPK2 = 0 | ROR2 = 0 | RPS6KA1 = 0 | SPHK1 = 0 | SRC 0 | STK24 = 0

O=C(Nc1ccc(Cl)cc1)C1CCCN(C(=O)c2cccc(-c3ccco3)c2)C1 (stereo not given) (2.5 µM)
inactive: PDPK1 = 0 | PIK4CA 0 | PIK4CB 0 | PLK1 = 0 | PRKAA1 = 0 | PRKCA 0 | PTK2 = 0 | PTK2B 0 | RAF1 = 0 | [1] 0 | RET 0 | [2] 0 | RIOK1 = 0 | RIPK1 = 0 | RIPK2 = 0 | ROR2 = 0 | RPS6KA1 = 0 | SPHK1 = 0 | SRC 0 | STK24 = 0

O=C(O)c1ccc(-c2c[nH]c3ncc(-c4ccccc4)cc23)cc1C1CCCC1 (2.5 µM)
inactive: PDPK1 = 0 | PIK4CA 0 | PIK4CB 0 | PLK1 = 0 | PRKAA1 = 0 | PRKCA 0 | PTK2 = 0 | PTK2B 0 | RAF1 = 0 | [1] 0 | RET 0 | [2] 0 | RIOK1 = 0 | RIPK1 = 0 | RIPK2 = 0 | ROR2 = 0 | RPS6KA1 = 0 | SPHK1 = 0 | SRC 0 | STK24 = 0

COc1cc(C(=O)N2CCC(N3CCN(C)CC3)CC2)ccc1Nc1ncc2c(n1)N(C)c1ccccc1C(=O)N2C (10 µM)
inactive: PDPK1 = 0 | PIK4CA 0 | PIK4CB 0 | PLK1 = 0 | PRKAA1 = 0 | PRKCA 0 | PTK2 = 0 | PTK2B 0 | RAF1 = 0 | [1] 0 | RET 0 | [2] 0 | RIOK1 = 0 | RIPK1 = 0 | RIPK2 = 0 | ROR2 = 0 | RPS6KA1 = 0 | SPHK1 = 0 | SRC 0 | STK24 = 0

Nc1nc2cc(-c3ccc4ncc(C(=O)N5CCOCC5)n4c3)ccc2o1 [Serabelisib] (10 µM)
inactive: PDPK1 = 0 | PIK4CA 0 | PIK4CB 0 | PLK1 = 0 | PRKAA1 = 0 | PRKCA 0 | PTK2 = 0 | PTK2B 0 | RAF1 = 0 | [1] 0 | RET 0 | [2] 0 | RIOK1 = 0 | RIPK1 = 0 | RIPK2 = 0 | ROR2 = 0 | RPS6KA1 = 0 | SPHK1 = 0 | SRC 0 | STK24 = 0

Two compounds picked at random from those above, as already listed:
COc1cc(C(=O)N2CCC(N3CCN(C)CC3)CC2)ccc1Nc1ncc2c(n1)N(C)c1ccccc1C(=O)N2C (10 µM)
inactive: PDPK1 = 0 | PIK4CA 0 | PIK4CB 0 | PLK1 = 0 | PRKAA1 = 0 | PRKCA 0 | PTK2 = 0 | PTK2B 0 | RAF1 = 0 | [1] 0 | RET 0 | [2] 0 | RIOK1 = 0 | RIPK1 = 0 | RIPK2 = 0 | ROR2 = 0 | RPS6KA1 = 0 | SPHK1 = 0 | SRC 0 | STK24 = 0

CNC(=O)c1ccc(-c2cnc3cnc(-c4ccccc4)cn23)cc1 (10 µM)
inactive: PDPK1 = 0 | PIK4CA 0 | PIK4CB 0 | PLK1 = 0 | PRKAA1 = 0 | PRKCA 0 | PTK2 = 0 | PTK2B 0 | RAF1 = 0 | [1] 0 | RET 0 | [2] 0 | RIOK1 = 0 | RIPK1 = 0 | RIPK2 = 0 | ROR2 = 0 | RPS6KA1 = 0 | SPHK1 = 0 | SRC 0 | STK24 = 0

(list continues)

CNC(=O)c1cc(Oc2ccc3nc(N[C@@H]4CCCC[C@H]4O)sc3c2)ccn1 (10 µM)
inactive: PDPK1 = 0 | PIK4CA 0 | PIK4CB 0 | PLK1 = 0 | PRKAA1 = 0 | PRKCA 0 | PTK2 = 0 | PTK2B 0 | RAF1 = 0 | [1] 0 | RET 0 | [2] 0 | RIOK1 = 0 | RIPK1 = 0 | RIPK2 = 0 | ROR2 = 0 | RPS6KA1 = 0 | SPHK1 = 0 | SRC 0 | STK24 = 0

CCOc1c([C@H](C)n2nc(C)c3c(N)ncnc32)cc(Cl)c(F)c1[C@@H]1CNC(=O)C1 [Parsaclisib (hydrochloride)] (10 µM)
inactive: PDPK1 = 0 | PIK4CA 0 | PIK4CB 0 | PLK1 = 0 | PRKAA1 = 0 | PRKCA 0 | PTK2 = 0 | PTK2B 0 | RAF1 = 0 | [1] 0 | RET 0 | [2] 0 | RIOK1 = 0 | RIPK1 = 0 | RIPK2 = 0 | ROR2 = 0 | RPS6KA1 = 0 | SPHK1 = 0 | SRC 0 | STK24 = 0
